{"source": "PubChem BioAssay AID540256", "about": "(National Center for Advancing Translational Sciences (NCATS), 2011)", "note": "The campaign covered roughly 300,000 compounds. About 3,700 (1.2%) were called active. The inconclusive results got no clear call from the source; some entries with a clear call stand among them for comparison. Calls come from the whole dose curve; tested in HEK293 cells. Potencies of inconclusive entries are doubtful fits and often do not repeat. Potency is the fitted concentration of half-maximal effect."}
{"assay": "qHTS for Inhibitors of binding or entry into cells for Lassa Virus; note: nearly all actives have a fitted effect of over 50% in size", "settings": "Lassa virus pseudotype entry inhibition, cell reporter; series mostly up to 37.9 µM"}
{"smiles": "CC(=O)[C@]12C[C@]3(C)CCCN(C(=O)N[C@@H]1c1ccccc1)C32", "note": "(stereo partly specified)", "Potency": "inconclusive: 0.0211 µM [inhibitor, full curve, poor fit]"}
{"smiles": "CCCC12CN3CCN(CC(C3)/C1=N\\NC(=O)Nc1ccccc1)C2", "Potency": "inconclusive: 0.708 µM [activator, single point]"}
{"smiles": "COc1cc(OC)c(C(=O)NC2CC(C)(C)NC(C)(C)C2)cc1OC", "Potency": "inconclusive: 28.2 µM [activator, single point]"}
{"smiles": "C#CCSc1nnc(-c2ccccc2)c(=O)[nH]1", "Potency": "inconclusive: 12.6 µM [activator, partial curve, poor fit]"}
{"smiles": "CC(Cc1ccsc1)NC(=O)CCc1nnc(COc2ccccc2)o1", "note": "(stereo unspecified)", "Potency": "inconclusive: 15.8 µM [inhibitor, single point]"}
{"smiles": "COc1ccc(Cl)cc1C(=O)Nc1ccccc1N1CCN(C)CC1", "Potency": "inactive"}
{"smiles": "Cc1cc(C)c(C)c(S(=O)(=O)N2CCN(c3ccc(O)cc3)CC2)c1C", "Potency": "inconclusive: 11.2 µM [inhibitor, partial curve]"}
{"smiles": "Cc1ccc(-n2nnnc2CNC(=O)c2ccc([N+](=O)[O-])o2)cc1C", "Potency": "inconclusive: 10 µM [inhibitor, partial curve, poor fit]"}
{"smiles": "CN(C)S(=O)(=O)c1ccc(Cl)c(NC(=O)CSc2nc3c(cc2C#N)C(=O)CC(C)(C)C3)c1", "Potency": "inconclusive: 3.98 µM [inhibitor, partial curve]"}
{"smiles": "Cc1ccc(Nc2nc(N)nc(CCl)n2)cc1", "Potency": "inconclusive: 35.5 µM [inhibitor, single point]"}
{"smiles": "Cc1c(Cl)cccc1N=Cc1ccc([N+](=O)[O-])s1", "Potency": "inconclusive: 16.4 µM [inhibitor, single point]"}
{"smiles": "O=C(NCCSc1ccccc1)c1cncc(Br)c1", "Potency": "inactive"}
{"smiles": "Cc1ccc(NC(=O)c2ccccc2N(C)S(C)(=O)=O)cc1C", "Potency": "inconclusive: 5.8 µM [activator, full curve, poor fit]"}
{"smiles": "O=S(=O)(Nc1ccc(F)cc1)N1CCCCCC1", "Potency": "inconclusive: 1.26 µM [activator, single point]"}
{"smiles": "CC1(C(=O)O)COC(c2ccc(Cl)cc2)OC1", "note": "(stereo unspecified)", "Potency": "inactive"}
{"smiles": "O=[N+]([O-])c1ccc(C=NN2CCCCCC2)cc1", "Potency": "inconclusive: 11.2 µM [inhibitor, single point]"}
{"smiles": "Cc1c(NC(=O)C(C)c2ccc(CC(C)C)cc2)c(=O)n(-c2ccccc2)n1C", "note": "(stereo unspecified)", "Potency": "inconclusive: 3.26 µM [inhibitor, partial curve, poor fit]"}
{"smiles": "CCSc1nnc(NC(=O)CSc2nnc(CNC(=O)c3ccccc3F)o2)s1", "Potency": "inactive"}
{"smiles": "COc1ccc(CN(C2CCCC2)S(=O)(=O)c2ccc(-n3cnnn3)cc2)cc1", "Potency": "inactive"}
{"smiles": "CC1(C)O[C@H]2[C@@H](O1)[C@@H](C(=O)Nc1cc(F)ccc1F)O[C@@H]1OC(C)(C)O[C@@H]12", "Potency": "inactive"}
{"smiles": "O=C(O)CCSc1nnc(-c2ccc(Cl)cc2Cl)o1", "Potency": "inconclusive: 0.562 µM [inhibitor, full curve, poor fit]"}
{"smiles": "O=C(COC(=O)c1ccc2[nH]c3c(c2c1)CCCC3)Nc1ccccc1", "Potency": "inconclusive: 3.55 µM [inhibitor, full curve]"}
{"smiles": "O=C(Nc1ccc2c(c1)OCCO2)c1cccn(Cc2cccc([N+](=O)[O-])c2)c1=O", "Potency": "inconclusive: 35.5 µM [inhibitor, partial curve, poor fit]"}
{"smiles": "CC1(C)C(=O)Nc2ccccc2N1C(=O)CSc1nnc2ccccn12", "Potency": "inactive"}
{"smiles": "O=C(Nc1cccc(NC(=O)c2ccc(Br)o2)n1)c1ccc(Br)o1", "Potency": "inconclusive: 2.06 µM [inhibitor, full curve, poor fit]"}
{"smiles": "Cn1ncc2c(=O)[nH]nnc21", "Potency": "inactive"}
{"smiles": "CCOC(=O)c1ccc(CN(Cc2ccc(Cl)cc2Cl)S(=O)(=O)c2cccc(Cl)c2)cc1", "Potency": "inactive"}
{"smiles": "CC(NC(=O)C(C(=O)c1cccc([N+](=O)[O-])c1)n1cc(Cl)ccc1=O)c1ccccc1", "note": "(stereo unspecified)", "Potency": "inconclusive: 20.6 µM [activator, partial curve, poor fit]"}
{"smiles": "N[C@H]1CONC1=O", "Potency": "inconclusive: 0.58 µM [inhibitor, full curve, poor fit]"}
{"smiles": "CCC(=O)Nc1nc2ccc(NC(C)=O)cc2s1", "Potency": "inactive"}
{"smiles": "CC(C)CC(=O)Nc1ccc(-c2nc3ccccc3c(=O)o2)cc1", "Potency": "inconclusive: 8.2 µM [inhibitor, partial curve, poor fit]"}
{"smiles": "COc1ccc(CCNC(=O)CCn2c(=O)c3cccn3c3ccc(F)cc32)cc1OC", "Potency": "inactive"}
{"smiles": "Cc1ccc(C(=O)Nc2cccc(-c3ccc(N4CCOCC4)nn3)c2)cc1C", "Potency": "inactive"}
{"smiles": "Cc1ccc(NC(=O)/C=C/c2cccc(C(F)(F)F)c2)cc1", "Potency": "inconclusive: 1.41 µM [inhibitor, partial curve]"}
{"smiles": "CCOc1ccccc1NC(=O)c1cn(C2CCCCC2)c(=O)c2c1c1ccccc1n2C", "Potency": "inconclusive: 5.62 µM [inhibitor, single point]"}
{"smiles": "O=C(CSc1ccc(Cl)cc1)Nc1ccc(N2CCN(C(=O)c3ccc(Cl)cc3)CC2)cc1", "Potency": "inconclusive: 13 µM [inhibitor, partial curve, poor fit]"}
{"smiles": "COc1ccc(S(=O)(=O)n2ccc(C(C)Oc3ccc(-c4ccccc4)c(F)c3)n2)cc1", "note": "(stereo unspecified)", "Potency": "inconclusive: 29.1 µM [inhibitor, single point]"}
{"smiles": "COC(=O)c1cc(S(=O)(=O)Nc2cc(S(=O)(=O)N(C)C)ccc2C)oc1C", "Potency": "inactive"}
{"smiles": "COc1ccccc1N=Nc1c(O)[nH]c(=S)[nH]c1=O", "Potency": "inconclusive: 20 µM [inhibitor, partial curve, poor fit]"}
{"smiles": "CCOC(=O)c1sc(NC(=O)CSc2nnc(Cc3ccccc3)o2)c(C#N)c1C", "Potency": "inactive"}
{"smiles": "COc1ccc(NC(=O)C(=O)c2cn(CC(=O)N3CCCC3)c3ccccc23)cc1OC", "Potency": "inconclusive: 20 µM [inhibitor, single point]"}
{"smiles": "CC(C)Cc1ccc(C(C)C(=O)Nc2ccccc2O)cc1", "note": "(stereo unspecified)", "Potency": "inconclusive: 1.78 µM [inhibitor, full curve, poor fit]"}
{"smiles": "Cc1ccc(C(=O)NC(=S)Nc2cccc(NC(=O)c3ccccc3)c2)cc1[N+](=O)[O-]", "Potency": "inconclusive: 32.6 µM [inhibitor, partial curve, poor fit]"}
{"smiles": "CNC(=O)c1cc2cc(Cc3ccccc3Cl)ccc2oc1=O", "Potency": "inconclusive: 6.31 µM [inhibitor, single point]"}
{"smiles": "Cc1ccc(-c2cn3c(n2)sc2cc(C(=O)NC4CCCCC4)ccc23)cc1", "Potency": "inactive"}
{"smiles": "O=C(Nc1ccc(Cl)c(S(=O)(=O)N2CCOCC2)c1)c1ccc2c(c1)OCO2", "Potency": "inconclusive: 12.6 µM [inhibitor, single point]"}
{"smiles": "Cc1cccc(NC(=O)c2ccc(F)c(S(=O)(=O)N3CCN(c4ccc(F)cc4)CC3)c2)c1", "Potency": "inconclusive: 0.316 µM [inhibitor, full curve, poor fit]"}
{"smiles": "C=CCNC(=O)COC(=O)c1cc(S(=O)(=O)N2CCCCC2)ccc1Cl", "Potency": "inconclusive: 14.6 µM [inhibitor, partial curve, poor fit]"}
{"smiles": "C=CCN(c1ccccc1OC)S(=O)(=O)c1cccc(C(=O)OCC(=O)c2c(N)n(C)c(=O)n(C)c2=O)c1", "Potency": "inconclusive: 20 µM [inhibitor, partial curve, poor fit]"}
{"smiles": "O=C(C1CCN(S(=O)(=O)c2cccc3cccnc23)CC1)N1CCN(c2ccccn2)CC1", "Potency": "inactive"}
{"smiles": "COc1cc2nc(CN3CCN(S(=O)(=O)c4cc(C)ccc4C)CC3)[nH]c(=O)c2cc1OC", "Potency": "inconclusive: 20 µM [inhibitor, partial curve, poor fit]"}
{"smiles": "CCCN1C2CCCC1CC(NC(=S)NCCCOCC)C2", "note": "(stereo unspecified)", "Potency": "inactive"}
{"smiles": "O=S(=O)(NCCc1ccncc1)c1ccccc1", "Potency": "inconclusive: 10 µM [activator, partial curve, poor fit]"}
{"smiles": "COc1cc(-c2cc(-c3ccc(F)cc3)nc(N)c2C#N)ccc1O", "Potency": "inconclusive: 14.1 µM [inhibitor, single point]"}
{"smiles": "CC1=Nc2cc(C(=O)NCc3ccco3)ccc2Sc2ccc(C)cc21", "Potency": "inconclusive: 1.46 µM [inhibitor, full curve, poor fit]"}
{"smiles": "Cc1nccn1CC(=O)N/N=C/c1ccccc1O", "Potency": "inactive"}
{"smiles": "O=C(NCC1CCN(Cc2ccccc2F)CC1)Nc1cccc(Br)c1", "Potency": "inconclusive: 31.6 µM [inhibitor, single point]"}
{"smiles": "CC(C)(C)C(=O)NC(Nc1cccc2cccnc12)C(Cl)(Cl)Cl", "note": "(stereo unspecified)", "Potency": "inconclusive: 11.2 µM [inhibitor, partial curve, poor fit]"}
{"smiles": "COc1cc(NC(=O)c2cc3cc4cc(OC)ccc4nc3o2)cc(OC)c1", "Potency": "inactive"}
{"smiles": "Cc1n[nH]c(=S)n(/N=C/c2cccs2)c1=O", "Potency": "inconclusive: 3.16 µM [activator, single point]"}
{"smiles": "CCc1ccc(NC(=O)C2CCN(C(=O)[C@@H]3Cc4ccccc4CN3)CC2)cc1", "Potency": "inconclusive: 35.5 µM [inhibitor, single point]"}
{"smiles": "CC(=O)NCCNC(=O)c1ccc2c(=O)n(CCc3ccccc3)c(=O)[nH]c2c1", "Potency": "inconclusive: 3.16 µM [activator, partial curve, poor fit]"}
{"smiles": "C1=Nc2c(NCc3ccccc3)ncnc2Oc2ccccc21", "Potency": "inconclusive: 17.8 µM [inhibitor, partial curve, poor fit]"}
{"smiles": "CCCc1[nH]nc2c1C(c1cn[nH]c1-c1ccc(F)cc1)C(C#N)=C(N)O2", "note": "(stereo unspecified)", "Potency": "inconclusive: 14.1 µM [inhibitor, single point]"}
{"smiles": "O=C(Cn1c(=O)n(Cc2ccco2)c(=O)c2sc3ccccc3c21)Nc1ccccc1C(F)(F)F", "Potency": "inactive"}
{"smiles": "CC(C)CN(CC(C)C)c1nc(N)c(C#N)c(CC#N)c1C#N", "Potency": "inconclusive: 17.8 µM [inhibitor, single point]"}
